Results taken from patent US20090247646A1, “USE OF RESVERATROL AND DERIVATIVES THEREOF FOR PROMOTING THE WELLNESS STATE IN MAMMALS” (priority 2006, published 2009).
This continues a long series; more values of the same kind are listed elsewhere.

System: gene expression in heart tissue
Test: Genome-wide gene expression in heart tissue of old mice fed a resveratrol-supplemented diet (Affymetrix Mouse Genome 430 2.0 array)
Format: in vivo

Measured: Effect of resveratrol on changeing gene expression from old to young profile

Oc1ccc(/C=C/c2cc(O)cc(O)c2)cc1 [resveratrol, 3,4′,5-Trihydroxy-trans-stilbene]
70-80%: 1416084_at zinc finger protein 216 | 1416950_at tumor necrosis factor, alpha-induced protein 8 | 1419288_at junction adhesion molecule 2 | 1420533_at guanylate cyclase 1, soluble, alpha 3 | 1420542_at open reading frame 28 | 1420806_at fibroblast growth factor 16
<60%: 1415748_a_at dynactin 5 | 1415801_at gap junction membrane channel protein alpha 1 | 1416601_a_at Down syndrome critical region homolog 1 (human) | 1417729_at myosin, heavy polypeptide 6, cardiac muscle, alpha | 1419088_at tissue inhibitor of metalloproteinase 3 | 1419098_at erythrocyte protein band 7.2 | 1419678_at large tumor suppressor 2 | 1420858_at protein kinase inhibitor, alpha | 1420871_at guanylate cyclase 1, soluble, beta 3
80-90%: 1415704_a_at carnitine deficiency-associated gene expressed in ventricle 3 | 1416706_at ribulose-5-phosphate-3-epimerase | 1416988_at mutS homolog 2 (E. coli) | 1417220_at fumarylacetoacetate hydrolase | 1417442_a_at peroxisomal biogenesis factor 3 | 1417535_at F-box only protein 25 | 1417668_at reticulon 4 interacting protein 1 | 1417734_at neighbor of A-kinase anchoring protein 95 | 1418231_at LIM and senescent cell antigen-like domains 1 | 1419639_at ephrin B2 | 1419662_at osteoglycin | 1420959_at aspartate-beta-hydroxylase
90-100%: 1416525_at speckle-type POZ protein | 1416794_at ADP-ribosylation factor-like 6 interacting protein 2 | 1416973_at sperm specific antigen 1 | 1417539_at solute carrier family 35 (CMP-sialic acid transporter), member 1 | 1417764_at signal sequence receptor, alpha | 1418406_at phosphodiesterase 8A | 1418692_at RAB8A, member RAS oncogene family | 1418768_at optic atrophy 1 homolog (human) | 1418843_at solute carrier family 30 (zinc transporter), member 4 | 1419300_at FMS-like tyrosine kinase 1 | 1419543_a_at Mus musculus similar to splicing factor, arginine/serine-rich (transformer 2 Drosophila homolog) 10 (LOC229280), mRNA | 1420607_at RNA binding motif protein 18 | 1420731_a_at cysteine and glycine-rich protein 2 | 1420971_at ubiquitin protein ligase E3 component n-recognin 1 | 1421102_a_at vesicle-associated membrane protein 3 | 1421116_a_at reticulon 4
60-70%: 1416368_at glutathione S-transferase, alpha 4 | 1416408_at acyl-Coenzyme A oxidase 1, palmitoyl | 1416499_a_at dynactin 6 | 1417350_at pallidin | 1417374_at tubulin, alpha 4 | 1417497_at ceruloplasmin | 1417736_at SMC6 structural maintenance of chromosomes 6-like 1 (yeast) | 1418435_at makorin, ring finger protein, 1 | 1418592_at DnaJ (Hsp40) homolog, subfamily A, member 4 | 1419257_at transcription elongation factor A (SII) 1 | 1420629_a_at DnaJ (Hsp40) homolog, subfamily A, member 3
>100%: 1415681_at mitochondrial ribosomal protein L43 | 1415690_at mitochondrial ribosomal protein L27 | 1415713_a_at DEAD (Asp-Glu-Ala-Asp) box polypeptide 24 | 1415735_at damage specific DNA binding protein 1 | 1415763_a_at Mus musculus transcribed sequence | 1415834_at dual specificity phosphatase 6 | 1415838_at tumor differentially expressed 2 | 1415864_at 2,3-bisphosphoglycerate mutase | 1415882_at growth hormone inducible transmembrane protein | 1415966_a_at NADH dehydrogenase (ubiquinone) flavoprotein 1 | 1415989_at vascular cell adhesion molecule 1 | 1416041_at serum/glucocorticoid regulated kinase | 1416066_at CD9 antigen | 1416091_at microtubule-associated protein 4 | 1416194_at cytochrome P450, family 4, subfamily b, polypeptide 1 | 1416320_at SEC22 vesicle trafficking protein-like 2 (S. cerevisiae) | 1416364_at heat shock protein 1, beta | 1416374_at adaptor-related protein complex 3, mu 1 subunit | 1416532_at expressed sequence AI481500 | 1416542_at PHD finger protein 1 | 1416590_a_at RAB34, member of RAS oncogene family | 1416593_at glutaredoxin 1 (thioltransferase) | 1416595_at mitochondrial ribosomal protein S22 | 1416652_at asporin | 1416659_at eukaryotic translation initiation factor 3, subunit 10 (theta) | 1416803_at FK506 binding protein 7 | 1416852_a_at expressed sequence AU040320 | 1416923_a_at BCL2/adenovirus E1B 19 kDa-interacting protein 3-like | 1416958_at nuclear receptor subfamily 1, group D, member 2 | 1417109_at lipocalin 7 | 1417324_at microtubule associated serine/threonine kinase 2 | 1417386_at puromycin-sensitive aminopeptidase | 1417423_at glutamate receptor, ionotropic, N-methyl D-asparate-associated protein 1 (glutamate binding) | 1417480_at f-box only protein 9 | 1417557_at UBX domain containing 1 | 1417673_at growth factor receptor bound protein 14 | 1417868_a_at cathepsin Z | 1417933_at keratin complex 2, basic, gene 8 | 1417964_at adaptor-related protein complex 3, delta subunit | 1418030_at solute carrier organic anion transporter family, member 3a1 | 1418098_at adenylate cyclase 4 | 1418117_at NADH dehydrogenase (ubiquinone) Fe—S protein 4 | 1418181_at protein tyrosine phosphatase 4a3 | 1418401_a_at dual specificity phosphatase 16 | 1418454_at microfibrillar associated protein 5 | 1418502_a_at oxidation resistance 1 | 1418518_at furin (paired basic amino acid cleaving enzyme) | 1418527_a_at neural-salient serine/arginine-rich | 1418589_a_at myeloid leukemia factor 1 | 1418621_at RAB2, member RAS oncogene family | 1418627_at glutamate-cysteine ligase, modifier subunit | 1418701_at armadillo repeat gene deleted in velo-cardio-facial syndrome | 1418835_at pleckstrin homology-like domain, family A, member 1 | 1419041_at DNA segment, Chr 8, Wayne State University 49, expressed | 1419054_a_at protein tyrosine phosphatase, non-receptor type 21 | 1419259_at Ras suppressor protein 1 | 1419295_at cAMP responsive element binding protein 3-like 1 | 1419365_at adaptor-related protein complex 3, sigma 2 subunit | 1419440_at ring finger protein 30 | 1420427_a_at DEAH (Asp-Glu-Ala-His) box polypeptide 32 | 1420889_at holocytochrome c synthetase | 1420900_a_at RAB18, member RAS oncogene family | 1420991_at ankyrin repeat domain 1 (cardiac muscle) | 1421054_at exportin 4 | 1421072_at Iroquois related homeobox 5 (Drosophila) | 1421139_a_at zinc finger protein 386 (Kruppel-like)
